System: Japanese patients with newly diagnosed ovarian cancer
Test: Phase 1 safety/tolerability: treatment-emergent adverse events, DLT, MTD, RP2D
Settings: all patients, up to 6 cycles
Procedure: This was a phase 1, open‐label, multicenter, dose‐escalation study to evaluate the tolerability, safety, PK and preliminary efficacy of oral veliparib in combination with carboplatin and weekly paclitaxel in Japanese patients with ovarian cancer. Patients were assigned to treatment with veliparib at either 100 mg (dose level 1 [DL1]) or 150 mg (DL2) b.i.d. on days 1–21 of a 21‐day cycle. […] After completion of cycle 1, subsequent cycles were not begun until the patient's ANC was ≥1500/mm^3 and the platelet count ≥100 000/mm^3. Patients with ANC 1000–1499/mm^3 or platelet count 75 000–99 000/mm^3 (or both) could proceed to the next cycle of therapy with a predefined dose modification (Table S1). On day 8 or 15 of each cycle, another dose modification guideline was applied (Table S2). The patient's participation in the study was discontinued upon the third occurrence of hematologic toxicity that required dose modification per protocol. Treatment could be postponed for up to 21 days because of toxicity; longer toxicity‐related delay led to study discontinuation. Reduction of carboplatin and paclitaxel doses was permitted based on the toxicity observed (Table S3), which could necessitate discontinuation of either agent. At the investigator's discretion, patients who discontinued veliparib were […] to discontinue the study but could continue to receive carboplatin and paclitaxel as standard of care. The trial was conducted in accordance with good clinical practice, the International Conference on Harmonization guidelines, and the 1964 Declaration of Helsinki and its later amendments; written informed consent was obtained from all patients before study enrollment. […]
Dose‐limiting toxicities were determined based on events that occurred during the DLT evaluation period from day 1 of cycle 1 through pre‐dosing on day 1 of cycle 2. […] The RP2D was determined on the basis of assessment of the observed toxicities, the MTD, the overall safety profile of the regimen, and the PK of veliparib. […]

| SMILES | median dose intensity [%] |
| --- | --- |
| C[C@]1(c2nc3c(C(N)=O)cccc3[nH]2)CCCN1 [Veliparib] | 100 |
| N.N.O=C([O-])C1(C(=O)[O-])CCC1.[Pt+2] [carboplatin] | ≥ 75 |
| CC(=O)O[C@H]1C(=O)[C@@]2(C)[C@H]([C@H](OC(=O)c3ccccc3)[C@]3(O)C[C@H](OC(=O)[C@H](O)[C@@H](NC(=O)c4ccccc4)c4ccccc4)C(C)=C1C3(C)C)[C@]1(OC(C)=O)CO[C@@H]1C[C@@H]2O [paclitaxel] | ≥ 75 |

Reference: publication PMC5665762, “Phase 1 study of veliparib with carboplatin and weekly paclitaxel in Japanese patients with newly diagnosed ovarian cancer” (Cancer Science, 2017)
